Data taken from US20160339008A1, “METHODS OF TREATING OR PREVENTING VASCULAR DISEASES OF THE RETINA” (Children's Medical Center Corporation, priority 2013, published 2016).
For at least one compound, name, drawing or mass did not settle the structure.

Columns and labels:
[1] = system: aortic rings (macrovascular sprouting); assay: Aortic ring sprouting assay (ex vivo aortic ring explants); assay type: cell-based, mouse
Method: Tie2-CYP2C8Tg, Tie2-sEHTg, sEH−/− mice and littermate wild-type mice were anesthetized and perfused intracardiacly with warm PBS. Aortae were dissected free, cut into 1-mm-thick rings and embedded in 304, of growth factor-reduced Matrigel™ (BD Biosciences, Cat. 354230) in 24-well tissue culture plates. 5004, CSC complete medium (Cell Systems, Cat. 420-500) activated with growth factor Boost, was then added to each well and incubated at 37° C. with 5% CO2 for 48 hours before any treatment. Medium contained 5 units/mL of Penicillin/Streptomycin (GIBCO, Cat. 15142) to prevent contamination.
DHA (Cayman Chemical, Cat. 90310, 30 μM) and AA (Cayman Chemical, Cat. 90010, 30 μM) were introduced to the culture medium 48 hours after seeding of aortic ring from Tie2-CYP2C8Tg and littermate wild-type control. 17(18)-EpETE (EEQ) (Cayman Chemical, Cat. 50861, 1 μM), 19(20)-EpDPE (EDP) (Cayman Chemical, Cat. 10175, 1 μM) and 14,15-EE-8(Z)-E (EET) (Cayman Chemical, Cat. 10010486, 1 μM) were administered to the culture medium 48 hours after seeding of aortic ring from Tie2-sEHTg, sEH−/− and their wild-type littermate controls. Medium was changed every 48 hours for all groups. Phase contrast photos of individual explants were taken 168 hours after plating (120 hours after treatment) using a ZEISS Axio Oberver.Z1 microscope. The areas of macrovascular sprouting were quantified with computer software ImageJ 1.46r (National Institute of Health). A semi-automated macro plugin for quantification of vessel sprouts is available from the authors.

[2] = system: human retinal microvascular endothelial cells (HRMEC); assay: HRMEC migration; assay type: cell-based
[3] = system: human retinal microvascular endothelial cells (HRMEC); assay: HRMEC tubule formation; assay type: cell-based

Structure (SMILES) | rescue of FA inhibition of aortic ring sprouting ([1]; rings from WT & Cyp2C8 Tg mice, with FA) | HRMEC migration [2] | HRMEC tubule formation [3] | sprouting of aortic rings ([1]; rings from Cyp2C8 Tg mice) | sprouting of aortic rings ([1]; rings from WT mice)
CC/C=C\C/C=C\C/C=C\C/C=C\C/C=C\C/C=C\CCC(=O)O [DHA, docosahexaenoic acid] | no rescue |  |  |  | 
CC(C)(Oc1ccc(C(=O)c2ccc(Cl)cc2)cc1)C(=O)O [fenofibric acid] |  | inhibition of HRMEC migration | inhibit HRMEC tubule formation | inhibit the sprouting of aortic rings | inhibit the sprouting of aortic rings
